Where two headings read alike, the source gives them in different places. No constants are given. Whether binding was seen depends on the method and setting. In cells and extracts the contact can be indirect. Some entries that bind do so weakly or less than the wild type. For some of these results: Sequences can lack the tags named with a protein. Values belong to the molecule of their own block, whether it stands above or below them.
How the values were obtained:
[1] = biological target: T1, ORP5 (endogenous) (human (endogenous in HeLa)) (UniProt Q9H0X9); assay: proximity ligation
T1 sequence: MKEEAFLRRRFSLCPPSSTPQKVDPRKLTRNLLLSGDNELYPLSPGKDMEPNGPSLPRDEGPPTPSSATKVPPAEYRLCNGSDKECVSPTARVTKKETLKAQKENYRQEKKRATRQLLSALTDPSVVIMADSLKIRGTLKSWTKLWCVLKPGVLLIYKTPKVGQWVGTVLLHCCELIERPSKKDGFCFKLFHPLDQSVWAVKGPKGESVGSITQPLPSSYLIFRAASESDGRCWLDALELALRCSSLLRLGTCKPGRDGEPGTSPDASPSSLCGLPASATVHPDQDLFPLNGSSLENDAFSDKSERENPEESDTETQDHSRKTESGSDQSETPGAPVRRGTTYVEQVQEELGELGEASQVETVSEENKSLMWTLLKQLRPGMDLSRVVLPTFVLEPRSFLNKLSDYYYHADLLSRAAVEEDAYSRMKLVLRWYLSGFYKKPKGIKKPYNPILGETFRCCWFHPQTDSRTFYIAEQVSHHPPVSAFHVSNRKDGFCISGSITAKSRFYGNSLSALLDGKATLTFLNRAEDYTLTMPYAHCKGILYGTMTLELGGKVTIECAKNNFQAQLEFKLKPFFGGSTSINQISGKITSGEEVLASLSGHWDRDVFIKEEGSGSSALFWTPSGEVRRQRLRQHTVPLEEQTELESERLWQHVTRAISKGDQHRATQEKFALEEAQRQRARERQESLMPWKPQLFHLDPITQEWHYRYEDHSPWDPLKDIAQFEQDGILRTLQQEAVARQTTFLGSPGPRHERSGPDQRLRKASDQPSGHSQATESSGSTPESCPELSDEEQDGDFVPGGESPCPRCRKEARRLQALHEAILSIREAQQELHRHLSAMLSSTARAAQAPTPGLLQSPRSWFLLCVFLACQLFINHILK

By UniProt entry, the sequences of proteins in these tests, tags left out.
UniProt Q15388: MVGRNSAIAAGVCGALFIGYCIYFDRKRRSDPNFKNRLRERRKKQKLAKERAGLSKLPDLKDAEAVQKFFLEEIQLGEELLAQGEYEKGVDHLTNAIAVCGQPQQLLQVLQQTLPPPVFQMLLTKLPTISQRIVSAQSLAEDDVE

[2] = biological target: T2, ORP8 (endogenous) (human (endogenous in HeLa)) (UniProt Q9BZF1); assay: proximity ligation
T2 sequence: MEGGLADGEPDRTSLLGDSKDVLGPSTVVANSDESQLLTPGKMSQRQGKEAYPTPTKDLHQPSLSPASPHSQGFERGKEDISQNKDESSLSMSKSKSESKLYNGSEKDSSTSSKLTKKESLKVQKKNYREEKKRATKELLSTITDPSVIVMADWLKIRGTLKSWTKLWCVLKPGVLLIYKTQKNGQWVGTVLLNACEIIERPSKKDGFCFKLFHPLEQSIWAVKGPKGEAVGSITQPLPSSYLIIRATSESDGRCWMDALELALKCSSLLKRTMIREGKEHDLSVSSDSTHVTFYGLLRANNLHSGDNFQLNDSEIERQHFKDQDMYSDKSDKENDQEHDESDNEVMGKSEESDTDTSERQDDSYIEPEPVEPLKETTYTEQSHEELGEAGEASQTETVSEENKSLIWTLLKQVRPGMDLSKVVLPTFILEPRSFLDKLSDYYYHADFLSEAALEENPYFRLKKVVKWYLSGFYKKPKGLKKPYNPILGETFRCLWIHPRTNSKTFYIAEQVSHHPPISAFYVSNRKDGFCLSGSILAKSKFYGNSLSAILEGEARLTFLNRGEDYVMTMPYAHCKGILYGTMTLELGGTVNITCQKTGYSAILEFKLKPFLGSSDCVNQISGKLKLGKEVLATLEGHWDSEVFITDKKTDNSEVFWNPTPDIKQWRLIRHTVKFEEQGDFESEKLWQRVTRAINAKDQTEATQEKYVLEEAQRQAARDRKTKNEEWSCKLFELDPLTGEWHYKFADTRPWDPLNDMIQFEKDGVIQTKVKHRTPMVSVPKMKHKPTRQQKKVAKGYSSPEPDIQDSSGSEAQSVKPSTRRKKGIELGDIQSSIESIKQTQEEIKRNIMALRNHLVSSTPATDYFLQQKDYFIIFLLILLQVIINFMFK

[3] = biological target: T1, ORP5 (endogenous) (human (endogenous in HeLa)); assay: proximity ligation; remark: listed apart in the source
HA-ORP5 = biological target: T3, HA-ORP5 (UniProt Q9H0X9); assay: proximity ligation
T3 sequence: T1 sequence

[4] = biological target: T2, ORP8 (endogenous) (human (endogenous in HeLa)); assay: proximity ligation; remark: listed apart in the source
EGFP-ORP8 = biological target: T4, EGFP-ORP8 (UniProt Q9BZF1); assay: co-IP
T4 sequence: T2 sequence

EGFP-ORP5 = biological target: T5, EGFP-ORP5 (UniProt Q9H0X9); assay: co-IP
T5 sequence: T1 sequence

Molecule: TOM20 (endogenous) (from UniProt Q15388 1-145)
binding [1]: binds
binding [2]: binds

B3: SAM50 (endogenous) (protein, UniProt Q9Y512 1-469)
chain: MGTVHARSLEPLPSSGPDFGGLGEEAEFVEVEPEAKQEILENKDVVVQHVHFDGLGRTKDDIIICEIGDVFKAKNLIEVMRKSHEAREKLLRLGIFRQVDVLIDTCQGDDALPNGLDVTFEVTELRRLTGSYNTMVGNNEGSMVLGLKLPNLLGRAEKVTFQFSYGTKETSYGLSFFKPRPGNFERNFSVNLYKVTGQFPWSSLRETDRGMSAEYSFPIWKTSHTVKWEGVWRELGCLSRTASFAVRKESGHSLKSSLSHAMVIDSRNSSILPRRGALLKVNQELAGYTGGDVSFIKEDFELQLNKQLIFDSVFSASFWGGMLVPIGDKPSSIADRFYLGGPTSIRGFSMHSIGPQSEGDYLGGEAYWAGGLHLYTPLPFRPGQGGFGELFRTHFFLNAGNLCNLNYGEGPKAHIRKLAECIRWSYGAGIVLRLGNIARLELNYCVPMGVQTGDRICDGVQFGAGIRFL
binding [4]: binds
binding (EGFP-ORP8): binds
binding (EGFP-ORP5): binds

Second part, the molecule after the results:

binding [3]: binds
B1: ORP8 (endogenous) (protein, UniProt Q9BZF1 1-889)
chain: T2 sequence

binding (HA-ORP5): binds
B2: 3XFLAG-ORP8 (protein, UniProt Q9BZF1 1-889)
chain: T2 sequence
